Experimental data published in PMC10578914.
Residue numbers refer to the chain shown, from its start. In names and notes the source's numbering stands. No constants are given. Whether binding was seen depends on the method and setting. Binding seen in cells or lysates may run through a third protein. Some entries that bind do so weakly or less than the wild type. Sequences can lack the tags named with a protein.

Columns and labels:
Assay in all cases: co-IP; HEK293T cells co-transfected, lysed 48 h later in RIPA buffer (150 mM NaCl, 1% NP-40, 0.5% DOC, 0.1% SDS, 50 mM Tris, pH 7.5); 1 mg/mL lysate pre-cleared, 4 ug anti-His or anti-Myc antibody overnight, protein G sepharose, three washes in RIPA; western blot for His and Myc
[1] = molecular target: T1, ECSIT (evolutionarily conserved signalling intermediate in the toll pathway), wild type, 6xHis-tagged (mouse) (UniProt Q9QZH6)
T1 sequence: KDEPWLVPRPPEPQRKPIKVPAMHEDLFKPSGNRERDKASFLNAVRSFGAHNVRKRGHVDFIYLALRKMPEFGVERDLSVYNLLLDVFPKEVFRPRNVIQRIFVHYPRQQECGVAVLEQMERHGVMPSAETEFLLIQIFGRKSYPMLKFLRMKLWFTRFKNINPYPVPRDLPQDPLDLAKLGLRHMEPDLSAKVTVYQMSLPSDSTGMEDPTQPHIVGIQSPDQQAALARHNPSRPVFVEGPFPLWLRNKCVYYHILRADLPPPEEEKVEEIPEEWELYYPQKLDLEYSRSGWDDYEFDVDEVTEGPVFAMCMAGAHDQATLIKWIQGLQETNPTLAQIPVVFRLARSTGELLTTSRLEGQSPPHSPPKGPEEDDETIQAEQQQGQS

[2] = molecular target: T2, ECSIT N209I, 6xHis-tagged (mouse) (UniProt Q9QZH6)
T2 sequence: T1 sequence with N161I

[3] = molecular target: T3, NDUFAF1, wild type, Myc-tagged (mouse) (UniProt Q9CWX2)
T3 sequence: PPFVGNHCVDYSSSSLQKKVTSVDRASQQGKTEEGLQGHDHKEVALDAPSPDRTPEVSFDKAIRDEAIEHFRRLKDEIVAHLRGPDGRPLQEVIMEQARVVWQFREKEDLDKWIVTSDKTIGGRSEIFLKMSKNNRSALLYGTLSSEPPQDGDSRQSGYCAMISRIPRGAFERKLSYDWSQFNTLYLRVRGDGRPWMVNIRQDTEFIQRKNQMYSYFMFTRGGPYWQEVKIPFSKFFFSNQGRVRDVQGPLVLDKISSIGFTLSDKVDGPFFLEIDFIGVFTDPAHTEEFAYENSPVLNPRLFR

[4] = molecular target: T4, ACAD9, wild type, Myc-tagged (UniProt Q8JZN5)
T4 sequence: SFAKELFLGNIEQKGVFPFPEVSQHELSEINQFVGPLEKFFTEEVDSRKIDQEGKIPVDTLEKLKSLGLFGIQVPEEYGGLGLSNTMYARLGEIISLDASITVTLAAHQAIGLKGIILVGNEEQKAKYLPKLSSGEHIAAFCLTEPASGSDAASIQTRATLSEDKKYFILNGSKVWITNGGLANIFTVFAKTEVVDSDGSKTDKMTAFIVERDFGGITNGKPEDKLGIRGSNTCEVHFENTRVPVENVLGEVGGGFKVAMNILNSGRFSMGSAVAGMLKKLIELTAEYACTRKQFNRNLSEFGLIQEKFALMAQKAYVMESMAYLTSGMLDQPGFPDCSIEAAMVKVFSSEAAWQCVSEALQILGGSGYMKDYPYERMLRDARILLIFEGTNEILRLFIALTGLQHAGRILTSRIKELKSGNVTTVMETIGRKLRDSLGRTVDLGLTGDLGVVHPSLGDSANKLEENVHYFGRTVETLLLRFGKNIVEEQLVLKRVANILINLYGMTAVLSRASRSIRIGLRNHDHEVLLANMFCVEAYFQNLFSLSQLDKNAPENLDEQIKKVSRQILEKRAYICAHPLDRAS

B1: TRAF6 (tumour necrosis factor receptor-associated factor 6), wild type, Myc-tagged (protein, UniProt P70196 1-530)
chain: MSLLNCENSCGSSQSSSDCCAAMAASCSAAVKDDSVSGSASTGNLSSSFMEEIQGYDVEFDPPLESKYECPICLMALREAVQTPCGHRFCKACIIKSIRDAGHKCPVDNEILLENQLFPDNFAKREILSLTVKCPNKGCLQKMELRHLEDHQVHCEFALVNCPQCQRPFQKCQVNTHIIEDCPRRQVSCVNCAVSMAYEEKEIHDQSCPLANIICEYCGTILIREQMPNHYDLDCPTAPIPCTFSVFGCHEKMQRNHLARHLQENTQLHMRLLAQAVHNVNLALRPCDAASPSRGCRPEDPNYEETIKQLESRLVRQDHQIRELTAKMETQSMYVGELKRTIRTLEDKVAEMEAQQCNGIYIWKIGNFGMHLKSQEEERPVVIHSPGFYTGRPGYKLCMRLHLQLPTAQRCANYISLFVHTMQGEYDSHLPWPFQGTIRLTILDQSEALIRQNHEEVMDAKPELLAFQRPTIPRNPKGFGYVTFMHLEALRQGTFIKDDTLLVRCEVSTRFDMGGLRKEGFQPRSTDAGV
- binding [1]: binds
- binding [2]: binds

B2: NDUFAF1, wild type, Myc-tagged (protein, UniProt Q9CWX2 25-328)
chain: T3 sequence
- binding [1]: binds

B3: ECSIT (evolutionarily conserved signalling intermediate in the toll pathway), wild type, 6xHis-tagged (protein, UniProt Q9QZH6 49-435)
chain: T1 sequence
- binding [3]: binds
- binding [4]: binds

B4: ECSIT N209I, 6xHis-tagged (protein, UniProt Q9QZH6 49-435)
chain: T1 sequence with N161I
- binding [3]: binds
- binding [4]: binds

B5: ACAD9, wild type, Myc-tagged (protein, UniProt Q8JZN5 42-625)
chain: T4 sequence
- binding [1]: binds
- binding [2]: binds
